Source: patent US20240279288A1, “APPLICATION OF PLANT JAZ PROTEINS AND DERIVED POLYPEPTIDES IN PREVENTION AND TREATMENT OF HUMAN AND ANIMAL TUMORS” (ANYANG INSTITUTE OF SINO-COTTON INDUSTRY INNOVATION, priority 2021, published 2024)
Results are given in words; binding and its absence hold for the method and conditions named. For some of these results: In cells and extracts the contact can be indirect. Some results given as binding are weak or reduced against the parent protein; the word gives no strength.

Amino acid sequences for entries named in this document (tags omitted). Residues count along the entry.
UniProt Q03405, residues 23-335: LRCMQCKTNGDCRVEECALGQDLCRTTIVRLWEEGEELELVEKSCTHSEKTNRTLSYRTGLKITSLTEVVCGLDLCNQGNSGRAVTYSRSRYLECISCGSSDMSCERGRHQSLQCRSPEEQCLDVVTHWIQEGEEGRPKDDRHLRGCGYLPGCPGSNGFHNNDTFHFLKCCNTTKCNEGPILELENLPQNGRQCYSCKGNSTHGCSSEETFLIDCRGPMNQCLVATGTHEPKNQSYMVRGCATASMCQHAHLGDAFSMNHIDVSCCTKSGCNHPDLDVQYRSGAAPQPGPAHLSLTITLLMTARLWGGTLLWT

Columns and labels:
[1] = biological target: uPAR (UniProt Q03405); experiment: CO-IP
[2] = biological target: uPAR (UniProt Q03405); experiment: yeast two hybrid screen of tumor surface receptors
[3] = biological target: ATF domain of uPA (UniProt P00749); experiment: yeast two hybrid
[4] = biological target: uPAR (UniProt Q03405); experiment: CO-IP (FIG. 10B)

Measured: binding

B1: GhJAZ1 (protein)
chain: MSSCSESTAMKPARSPEKPSFAQTCNLLSQYLKEKGSFGDLSLGMTCNVEANGTPVVPPPTMNLFPLNDKSDDVCGRNGGNPKNLTSMDLFPQQAGLASKDDSPNKLEPQTAPMTIFYGGQVIVFNDFPANKAKEIMLLASNSSSQSNNSFNPIPFTSSIARSPIESSIGVPPTSKPVHPAQRAVPGDLPIARRASLHRFLEKRKDRITAKAPYQINNSAAAPSLSGDNKSWLGLAAQSP
binds: [1] | [2] | [3] | [4]
